Results: publication PMC12333948
Results are given in words; binding and its absence hold for the method and conditions named. In cells and extracts the contact can be indirect. Some binding calls cover weakened binding; strength is not graded here.

The chains behind the UniProt entries cited, without tags or fusion partners. Residues count along the entry.
UniProt P48679, residues 1-647: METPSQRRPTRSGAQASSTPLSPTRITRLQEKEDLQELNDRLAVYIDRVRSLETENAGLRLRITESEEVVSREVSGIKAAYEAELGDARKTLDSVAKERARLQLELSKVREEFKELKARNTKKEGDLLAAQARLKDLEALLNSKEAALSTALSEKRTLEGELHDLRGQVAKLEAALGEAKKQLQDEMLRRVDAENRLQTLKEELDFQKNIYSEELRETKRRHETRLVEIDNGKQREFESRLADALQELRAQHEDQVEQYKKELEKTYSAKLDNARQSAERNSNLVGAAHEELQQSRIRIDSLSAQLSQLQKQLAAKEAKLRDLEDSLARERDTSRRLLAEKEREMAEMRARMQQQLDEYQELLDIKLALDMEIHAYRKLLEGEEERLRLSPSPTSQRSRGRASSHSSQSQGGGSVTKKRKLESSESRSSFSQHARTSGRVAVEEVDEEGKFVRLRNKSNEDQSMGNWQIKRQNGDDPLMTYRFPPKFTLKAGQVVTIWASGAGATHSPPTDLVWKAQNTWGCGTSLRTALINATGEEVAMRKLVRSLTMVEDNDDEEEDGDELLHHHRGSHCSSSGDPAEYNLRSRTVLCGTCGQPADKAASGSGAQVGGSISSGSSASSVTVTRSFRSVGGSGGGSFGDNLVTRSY
UniProt P02545, residues 1-646: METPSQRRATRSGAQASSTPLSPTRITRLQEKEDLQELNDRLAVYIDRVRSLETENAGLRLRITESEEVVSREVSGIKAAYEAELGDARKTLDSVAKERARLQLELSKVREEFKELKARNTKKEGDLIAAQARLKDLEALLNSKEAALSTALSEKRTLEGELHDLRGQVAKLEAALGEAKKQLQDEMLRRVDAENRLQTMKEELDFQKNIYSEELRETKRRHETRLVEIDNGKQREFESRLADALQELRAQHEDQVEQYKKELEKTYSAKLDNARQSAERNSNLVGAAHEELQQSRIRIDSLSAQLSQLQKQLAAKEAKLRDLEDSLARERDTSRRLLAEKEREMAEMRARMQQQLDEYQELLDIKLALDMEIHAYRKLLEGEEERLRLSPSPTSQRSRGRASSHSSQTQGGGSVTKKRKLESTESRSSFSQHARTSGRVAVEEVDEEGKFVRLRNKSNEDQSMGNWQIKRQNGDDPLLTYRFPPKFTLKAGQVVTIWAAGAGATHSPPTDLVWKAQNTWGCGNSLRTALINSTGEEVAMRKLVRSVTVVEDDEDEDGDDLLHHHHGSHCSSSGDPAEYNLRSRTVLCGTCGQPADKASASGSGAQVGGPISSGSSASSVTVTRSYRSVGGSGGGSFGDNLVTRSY

Legend:
[1] = target: His-tagged CUL3 (Cullin-3), expressed in A10 cells (UniProt Q13618); experiment: co-IP; A10 rat aortic smooth muscle cells; IP with IgG or anti-His antibody, Western blot; cells treated with nonspecific control siRNA or siRNA targeting Lmna
[2] = target: His-tagged CUL3 (Cullin-3), expressed in HEK293 cells (UniProt Q13618); experiment: co-IP; HEK293 cells transfected with His-CUL3; lysate (1% Triton X-100, 150 mmol/L NaCl, pH 7.5) incubated with anti-His-tag magnetic beads overnight at 4°C, IgG as control; Western blot; for Rab5 cells also treated with siRNA to Rab5c or nonspecific control for 72 hours

Row | binding [1] | binding [2] | Substance
1 | binds |  | Lamin A/C, endogenous in A10 cells (from UniProt P48679 1-647)
2 |  | binds | Lamin A/C, endogenous in HEK293 cells (from UniProt P02545 1-646)
